The list is a part of this screen's results and no random one: it gathers tests that were run many times, whatever their T/C, doses with no T/C, and many T/C values between a quarter and a half above the control. Other doses and runs of a compound stand elsewhere. T/C gives the treated animals as a percentage of the vehicle group. Some doses have a count of surviving animals in place of a T/C: the source holds a T/C of zero for them, seemingly a mark for toxic or unscored doses. Some doses without a T/C left all or most animals alive at the check, yet need not have been tolerated: the source hardly ever lists a survival T/C far under the control, and the zero likely stands for such cases as well. Counts of survivors are from the toxicity check (mostly the fifth day) where no day follows; animals may have died later. Schedule codes are those of the source, taken here to give the interval after Q, in days (D) or hours (H), and the number of doses after X. For survival time, this PubChem deposit counts one and a half times the control or more as active, and values a quarter to a half above the control carry no call in these data; other NCI protocols may use other cut-offs. Some entries hold several experiments; their values stand side by side, smallest first. Some T/C values are followed by the survivors on the day toxicity was checked, most often the fifth; without a count, all were alive then.
System: CD2F1 mice, L1210 leukemia ip, survival T/C
Assay: NCI In Vivo Anticancer Drug Screen. Data for tumor model L1210 Leukemia (intraperitoneal) in CD2F1 (CDF1) mice
Conditions: higher T/C = longer survival
Summary of the method: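 Each value reflects a quotient of treated over vehicle control outcomes in mice with a transplanted tumor.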

[1] = T/C endpoint: mean survival time, dose: 100.0 mg/kg/injection, schedule: Q01DX009 (ip), vehicle: saline with Tween-80
[2] = T/C endpoint: mean survival time, dose: 200.0 mg/kg/injection, schedule: Q01DX009 (ip), vehicle: saline with Tween-80
[3] = T/C endpoint: mean survival time, dose: 400.0 mg/kg/injection, schedule: Q04DX002 (ip), vehicle: saline with Tween-80
[4] = T/C endpoint: mean survival time, dose: 300.0 mg/kg/injection, schedule: Q01DX001 (ip), vehicle: saline
[5] = T/C endpoint: mean survival time, dose: 200.0 mg/kg/injection, schedule: Q04DX003 (ip), vehicle: saline with Tween-80
[6] = T/C endpoint: mean survival time, dose: 400.0 mg/kg/injection, schedule: Q04DX003 (ip), vehicle: saline with Tween-80
[7] = T/C endpoint: mean survival time, dose: 100.0 mg/kg/injection, schedule: Q04DX003 (ip), vehicle: saline with Tween-80
[8] = T/C endpoint: mean survival time, dose: 300.0 mg/kg/injection, schedule: Q01DX001 (ip), vehicle: other
[9] = T/C endpoint: mean survival time, dose: 400.0 mg/kg/injection, schedule: Q01DX009 (ip), vehicle: saline with Tween-80

O=C1Cc2cc3c(cc2C=C2CCCN12)OCO3
survivor count (T/C endpoint: mean survival time, dose: 200.0 mg/kg/injection, schedule: Q01DX009 (ip), vehicle: water): 3 of 6

CCCCCCCCCCCCCCCC(=O)N(CCCN)CCCN(CCCN)C(=O)CCCCCCCCCCCCCCC
survivor count [1]: 1 of 6

C=C(COC(C)(C)C)CN(C)C
survivor count [2]: 1 of 6

CC(C)C[CH2][Pb]([Cl])([CH2]CC(C)C)[CH2]CC(C)C
survivor count (T/C endpoint: mean survival time, dose: 100.0 mg/kg/injection, schedule: Q04DX003 (ip), vehicle: other): 0 of 6 | survivor count (T/C endpoint: mean survival time, dose: 200.0 mg/kg/injection, schedule: Q04DX003 (ip), vehicle: other): 0 of 6 | survivor count (T/C endpoint: mean survival time, dose: 400.0 mg/kg/injection, schedule: Q04DX003 (ip), vehicle: other): 0 of 6

CC(=O)OC1C(NC(=O)N(CCCl)N=O)C(OC(C)=O)C(OC(C)=O)C(NC(=O)N(CCCl)N=O)C1OC(C)=O (stereo not given)
T/C (T/C endpoint: mean survival time, dose: 30.0 mg/kg/injection, schedule: Q01DX001 (ip), vehicle: saline with Tween-80): 141 % of control | T/C (T/C endpoint: mean survival time, dose: 40.0 mg/kg/injection, schedule: Q01DX001 (ip), vehicle: saline with Tween-80): 137 % of control

Nc1ncnc2c1c(I)cn2C1OC(CO)C(O)C1O (stereo not given)
survivor count (T/C endpoint: mean survival time, dose: 100.0 mg/kg/injection, schedule: Q01DX001 (ip), vehicle: saline): 0 of 6 | survivor count (T/C endpoint: mean survival time, dose: 200.0 mg/kg/injection, schedule: Q01DX001 (ip), vehicle: saline): 0 of 6 | survivor count (T/C endpoint: mean survival time, dose: 400.0 mg/kg/injection, schedule: Q01DX001 (ip), vehicle: saline): 0 of 6

CN(C)Cc1cc(C(C)(C)C)cc(CN(C)C)c1O
survivor count (T/C endpoint: mean survival time, dose: 20.0 mg/kg/injection, schedule: Q01DX009 (ip), vehicle: saline with Tween-80): 2 of 6 | survivor count (T/C endpoint: mean survival time, dose: 40.0 mg/kg/injection, schedule: Q01DX009 (ip), vehicle: saline with Tween-80): 0 of 6

N#CC1C(C#N)C1C#N (stereo not given)
survivor count (T/C endpoint: mean survival time, dose: 400.0 mg/kg/injection, schedule: Q01DX001 (ip), vehicle: saline with Tween-80): 0 of 3

Cc1ccc(S(=O)(=O)Oc2ccc(Br)cc2)cc1
survivor count [3]: 3 of 3

N/N=C1\CC2C3CC4(OCCO4)C4C3CC2C14 (stereo not given)
survivor count [4]: 1 of 6

CN(C)C(SCc1ccccc1)=[N+](C)C
survivor count [3]: 0 of 3

NC(=O)C(O)(c1ccc(Br)cc1)C(Cl)Cl (stereo not given)
T/C (T/C endpoint: mean survival time, dose: 200.0 mg/kg/injection, schedule: Q04DX002 (ip), vehicle: saline with Tween-80): 135 % of control [2 of 3 alive] | survivor count (T/C endpoint: mean survival time, dose: 228.0 mg/kg/injection, schedule: Q04DX002 (ip), vehicle: saline with Tween-80): 6 of 10 | survivor count [3]: 0 of 3

C=C(Br)CNC(=O)OC
survivor count [5]: 4 of 6 | survivor count [6]: 0 of 6

Cc1ncc(CO)c(C2NOCc3ccc(Cl)cc32)c1O (stereo not given)
survivor count (T/C endpoint: mean survival time, dose: 100.0 mg/kg/injection, schedule: Q01DX009 (ip), vehicle: Klucel (hydroxypropylcellulose) (HPC)): 0 of 6

N#Cc1cn(C2OC(CO)C(O)C2O)c2ncn(N)c(=N)c12 (stereo not given)
survivor count (T/C endpoint: mean survival time, dose: 200.0 mg/kg/injection, schedule: Q01DX005 (ip), vehicle: water): 6 of 6 | survivor count (T/C endpoint: mean survival time, dose: 400.0 mg/kg/injection, schedule: Q01DX005 (ip), vehicle: water): 0 of 6

CC(=O)OC1CC(C)CCC1C(C)C (stereo not given)
survivor count [6]: 3 of 6

CN1CCN(c2ccc([N+](=O)[O-])c3no[n+]([O-])c23)CC1
T/C (T/C endpoint: mean survival time, dose: 10.0 mg/kg/injection, schedule: Q01DX009 (ip), vehicle: saline): 125 % of control | T/C (T/C endpoint: mean survival time, dose: 15.0 mg/kg/injection, schedule: Q01DX009 (ip), vehicle: saline): 125 % of control | T/C (T/C endpoint: mean survival time, dose: 20.0 mg/kg/injection, schedule: Q01DX009 (ip), vehicle: saline): 132 % of control | survivor count (T/C endpoint: mean survival time, dose: 80.0 mg/kg/injection, schedule: Q01DX009 (ip), vehicle: saline with Tween-80): 4 of 6

O=C(CSC1=NCCN1)c1ccc([N+](=O)[O-])cc1
survivor count [7]: 6 of 6 | survivor count [5]: 0 of 6 | survivor count [6]: 0 of 6

O=Cc1[nH]c(=S)[nH]c(=O)c1Cc1ccc(Cl)cc1
survivor count [5]: 6 of 6 | survivor count [6]: 5 of 6

C=C1C(O)CC2CC1C2(C)C (stereo not given)
survivor count [1]: 3 of 6 | survivor count [2]: 0 of 6

O=C(O)c1cc(Br)c(Br)s1
survivor count [6]: 0 of 6

COc1ccc(CC(N)C(=O)NC2C(COP(=O)(O)OC3CC(n4cc(C)c(=O)[nH]c4=O)OC3CO)OC(n3cnc4c(N(C)C)ncnc43)C2O)cc1 (stereo not given)
survivor count (T/C endpoint: median survival time, dose: 350.0 mg/kg/injection, schedule: Q01DX005 (ip), vehicle: saline): 3 of 6

O=C(Nc1ccc(NC(=O)c2ccccc2)c2ccccc12)c1ccccc1
survivor count [5]: 6 of 6

C[n+]1cc(Br)c2ccccc2c1
survivor count [4]: 2 of 6

CCOC(=O)c1ccc(NC/C(CN)=N/O)cc1
survivor count [8]: 6 of 6

CC(C)(C)OC(=O)NCCCCC(NC(=O)CNC(=O)C(CSC(c1ccccc1)(c1ccccc1)c1ccccc1)NC(=O)OC(C)(C)C)C(=O)O (stereo not given)
survivor count (T/C endpoint: mean survival time, dose: 200.0 mg/kg/injection, schedule: Q04DX003 (ip), vehicle: saline sonified): 2 of 6 | survivor count (T/C endpoint: mean survival time, dose: 400.0 mg/kg/injection, schedule: Q04DX003 (ip), vehicle: saline sonified): 0 of 6

CN(C)C=O
survivor count (T/C endpoint: mean survival time, dose: 3200.0 mg/kg/injection, schedule: Q01DX009 (ip), vehicle: saline): 3 of 6

OCC1OC(n2ccc3c(NO)ncnc32)C(O)C1O (stereo not given)
survivor count (T/C endpoint: mean survival time, dose: 20.0 mg/kg/injection, schedule: Q01DX001 (ip), vehicle: saline): 1 of 6 | survivor count (T/C endpoint: mean survival time, dose: 40.0 mg/kg/injection, schedule: Q01DX001 (ip), vehicle: saline): 0 of 6 | survivor count (T/C endpoint: mean survival time, dose: 75.0 mg/kg/injection, schedule: Q01DX001 (ip), vehicle: saline): 0 of 6 | survivor count (T/C endpoint: mean survival time, dose: 80.0 mg/kg/injection, schedule: Q01DX001 (ip), vehicle: saline): 0 of 6 | survivor count (T/C endpoint: mean survival time, dose: 150.0 mg/kg/injection, schedule: Q01DX001 (ip), vehicle: saline): 0 of 6 | survivor count [4]: 0 of 6

CCN(CC)CCNC(=O)C(O)C1CCCCC1 (stereo not given)
survivor count (T/C endpoint: mean survival time, dose: 150.0 mg/kg/injection, schedule: Q01DX001 (ip), vehicle: other): 4 of 6 | survivor count [8]: 0 of 6

CCC(C#N)C1=CCCCCC1 (stereo not given)
survivor count [5]: 5 of 6 | survivor count [6]: 0 of 6

COc1cc(C(CC(C)=O)c2cc3c(cc2OC(C)=O)OCO3)cc(OC)c1OC (stereo not given) (tested in a mixture with another compound)
T/C (T/C endpoint: median survival time, dose: 120.0 mg/kg/injection, schedule: Q01DX005 (ip), vehicle: saline with Tween-80): 132, 138, 142 % of control | survivor count (T/C endpoint: median survival time, dose: 333.0 mg/kg/injection, schedule: Q01DX005 (ip), vehicle: saline with Tween-80): 2 of 6 | survivor count (T/C endpoint: median survival time, dose: 333.33 mg/kg/injection, schedule: Q01DX005 (ip), vehicle: saline with Tween-80): 6 of 6 | survivor count (T/C endpoint: median survival time, dose: 555.56 mg/kg/injection, schedule: Q01DX005 (ip), vehicle: saline with Tween-80): 1 of 6

C[S+](C)CCC(N)C(=O)O (stereo not given)
survivor count (T/C endpoint: median survival time, dose: 100.0 mg/kg/injection, schedule: Q04DX002 (ip), vehicle: saline): 0 of 3 | survivor count (T/C endpoint: median survival time, dose: 200.0 mg/kg/injection, schedule: Q04DX002 (ip), vehicle: saline): 0 of 3 | survivor count (T/C endpoint: median survival time, dose: 400.0 mg/kg/injection, schedule: Q04DX002 (ip), vehicle: saline): 0 of 3

Nc1nc(N)c2nc(CSc3ccc(C(=O)NC(CCC(=O)O)C(=O)O)cc3)cnc2n1 (stereo not given)
T/C (T/C endpoint: mean survival time, dose: 48.0 mg/kg/injection, schedule: Q01DX009 (ip), vehicle: distilled water + Tween-80): 130 % of control

CC(N)(CCC(=O)O)C(=O)O (stereo not given)
survivor count [9]: 2 of 6

Cc1cc(C)c(C(C)(C)O)c(C)c1
survivor count [7]: 6 of 6

O=C(CNC(=O)Nc1cccc([N+](=O)[O-])c1)NNC(=O)Nc1ccccc1F
survivor count [9]: 6 of 6

CCCCCCCCCCCCCCCCCC[N+]1(C)CCOCC1
survivor count (T/C endpoint: mean survival time, dose: 50.0 mg/kg/injection, schedule: Q04DX002 (ip), vehicle: Klucel (hydroxypropylcellulose) (HPC)): 3 of 3 | survivor count (T/C endpoint: mean survival time, dose: 100.0 mg/kg/injection, schedule: Q04DX002 (ip), vehicle: Klucel (hydroxypropylcellulose) (HPC)): 1 of 3 | survivor count (T/C endpoint: mean survival time, dose: 200.0 mg/kg/injection, schedule: Q04DX002 (ip), vehicle: Klucel (hydroxypropylcellulose) (HPC)): 0 of 3 | survivor count (T/C endpoint: mean survival time, dose: 400.0 mg/kg/injection, schedule: Q04DX002 (ip), vehicle: Klucel (hydroxypropylcellulose) (HPC)): 0 of 3
